Assay results as given in the supplement of paper PMC10849652.
Some of the results follow.

Chains of the proteins cited; added tags and fusions are not shown. Lines headed by an entry give the natural chain unless they say otherwise; changes in a name come on top.
UniProt Q96GS4: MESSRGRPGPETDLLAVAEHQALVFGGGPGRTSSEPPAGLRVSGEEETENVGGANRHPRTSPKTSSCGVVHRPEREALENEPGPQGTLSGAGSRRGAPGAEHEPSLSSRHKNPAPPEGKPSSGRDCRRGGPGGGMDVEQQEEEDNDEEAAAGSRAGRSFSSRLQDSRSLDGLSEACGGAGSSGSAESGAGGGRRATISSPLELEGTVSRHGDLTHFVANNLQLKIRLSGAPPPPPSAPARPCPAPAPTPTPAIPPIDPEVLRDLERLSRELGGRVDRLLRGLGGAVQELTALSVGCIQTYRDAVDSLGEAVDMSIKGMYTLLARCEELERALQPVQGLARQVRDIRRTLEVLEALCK
UniProt Q13535: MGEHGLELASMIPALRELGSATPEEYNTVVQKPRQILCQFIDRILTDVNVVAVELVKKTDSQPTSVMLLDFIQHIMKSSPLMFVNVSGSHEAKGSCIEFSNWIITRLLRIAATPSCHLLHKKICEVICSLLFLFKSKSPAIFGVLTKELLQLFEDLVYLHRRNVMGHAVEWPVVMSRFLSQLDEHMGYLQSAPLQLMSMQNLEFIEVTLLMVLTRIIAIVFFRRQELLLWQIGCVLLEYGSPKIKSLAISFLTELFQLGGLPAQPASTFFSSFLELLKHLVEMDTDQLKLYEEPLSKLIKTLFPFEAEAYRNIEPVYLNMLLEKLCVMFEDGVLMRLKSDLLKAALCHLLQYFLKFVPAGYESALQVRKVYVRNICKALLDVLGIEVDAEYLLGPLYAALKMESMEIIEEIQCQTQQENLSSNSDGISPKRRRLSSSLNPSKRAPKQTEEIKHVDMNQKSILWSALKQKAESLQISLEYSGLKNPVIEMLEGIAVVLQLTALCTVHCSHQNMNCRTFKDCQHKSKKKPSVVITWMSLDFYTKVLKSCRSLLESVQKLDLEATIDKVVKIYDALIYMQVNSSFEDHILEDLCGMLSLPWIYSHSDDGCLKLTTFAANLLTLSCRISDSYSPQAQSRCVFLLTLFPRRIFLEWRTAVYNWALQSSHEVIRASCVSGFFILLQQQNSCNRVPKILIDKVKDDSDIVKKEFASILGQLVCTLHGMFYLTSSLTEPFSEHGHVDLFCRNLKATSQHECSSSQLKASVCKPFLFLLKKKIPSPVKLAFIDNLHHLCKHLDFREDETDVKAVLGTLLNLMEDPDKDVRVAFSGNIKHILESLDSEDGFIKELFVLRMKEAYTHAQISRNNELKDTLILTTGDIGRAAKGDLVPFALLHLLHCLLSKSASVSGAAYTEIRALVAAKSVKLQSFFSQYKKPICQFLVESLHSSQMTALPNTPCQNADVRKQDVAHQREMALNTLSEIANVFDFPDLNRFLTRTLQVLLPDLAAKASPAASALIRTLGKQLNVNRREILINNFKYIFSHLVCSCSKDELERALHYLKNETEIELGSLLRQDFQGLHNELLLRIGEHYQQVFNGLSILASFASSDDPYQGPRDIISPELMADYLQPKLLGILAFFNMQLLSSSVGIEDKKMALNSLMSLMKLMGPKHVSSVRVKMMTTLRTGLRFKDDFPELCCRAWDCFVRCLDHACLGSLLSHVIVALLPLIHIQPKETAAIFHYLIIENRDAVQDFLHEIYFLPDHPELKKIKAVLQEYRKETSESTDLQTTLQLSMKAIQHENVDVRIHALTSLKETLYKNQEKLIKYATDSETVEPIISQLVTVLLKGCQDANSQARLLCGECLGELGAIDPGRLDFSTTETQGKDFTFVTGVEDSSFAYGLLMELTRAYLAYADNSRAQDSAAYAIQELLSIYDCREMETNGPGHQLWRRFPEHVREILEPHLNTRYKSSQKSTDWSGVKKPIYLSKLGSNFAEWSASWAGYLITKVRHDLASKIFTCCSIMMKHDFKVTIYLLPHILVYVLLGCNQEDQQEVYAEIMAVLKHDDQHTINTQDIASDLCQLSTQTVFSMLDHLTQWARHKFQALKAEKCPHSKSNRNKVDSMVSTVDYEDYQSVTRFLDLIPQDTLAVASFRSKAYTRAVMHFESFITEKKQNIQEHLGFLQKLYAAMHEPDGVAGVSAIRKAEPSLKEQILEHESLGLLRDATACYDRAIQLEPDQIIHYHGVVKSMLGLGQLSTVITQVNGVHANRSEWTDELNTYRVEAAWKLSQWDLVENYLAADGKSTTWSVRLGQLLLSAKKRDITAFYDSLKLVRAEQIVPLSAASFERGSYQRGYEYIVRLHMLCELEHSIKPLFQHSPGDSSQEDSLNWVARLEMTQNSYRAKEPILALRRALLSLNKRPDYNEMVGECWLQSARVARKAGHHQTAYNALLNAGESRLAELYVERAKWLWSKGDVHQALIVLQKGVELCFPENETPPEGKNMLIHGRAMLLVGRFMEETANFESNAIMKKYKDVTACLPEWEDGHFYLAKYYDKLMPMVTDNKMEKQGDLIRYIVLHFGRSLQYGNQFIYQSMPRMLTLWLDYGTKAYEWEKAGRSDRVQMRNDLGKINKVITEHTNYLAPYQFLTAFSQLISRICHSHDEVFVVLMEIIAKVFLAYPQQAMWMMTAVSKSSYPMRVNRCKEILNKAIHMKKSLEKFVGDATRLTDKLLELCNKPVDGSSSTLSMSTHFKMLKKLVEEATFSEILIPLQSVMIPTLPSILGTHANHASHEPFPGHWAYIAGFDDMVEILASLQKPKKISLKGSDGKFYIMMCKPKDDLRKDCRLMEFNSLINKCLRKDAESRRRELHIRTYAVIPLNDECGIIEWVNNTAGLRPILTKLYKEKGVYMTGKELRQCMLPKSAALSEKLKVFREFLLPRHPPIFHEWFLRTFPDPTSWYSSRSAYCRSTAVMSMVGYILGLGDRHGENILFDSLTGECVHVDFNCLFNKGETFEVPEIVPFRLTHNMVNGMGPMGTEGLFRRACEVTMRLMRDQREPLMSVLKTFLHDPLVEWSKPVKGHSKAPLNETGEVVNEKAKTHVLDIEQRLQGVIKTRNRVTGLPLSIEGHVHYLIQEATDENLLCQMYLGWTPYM
UniProt P15291: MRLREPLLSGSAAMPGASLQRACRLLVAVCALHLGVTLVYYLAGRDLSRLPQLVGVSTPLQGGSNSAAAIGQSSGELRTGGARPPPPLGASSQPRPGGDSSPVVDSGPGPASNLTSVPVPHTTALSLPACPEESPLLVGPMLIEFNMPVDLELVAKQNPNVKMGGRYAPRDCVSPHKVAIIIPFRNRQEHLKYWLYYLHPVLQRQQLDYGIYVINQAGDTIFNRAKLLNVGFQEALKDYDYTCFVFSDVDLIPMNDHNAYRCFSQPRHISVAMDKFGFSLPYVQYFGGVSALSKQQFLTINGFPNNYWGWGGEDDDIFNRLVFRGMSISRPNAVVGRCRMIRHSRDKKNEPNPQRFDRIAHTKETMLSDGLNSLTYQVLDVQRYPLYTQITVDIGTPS
UniProt Q7Z569: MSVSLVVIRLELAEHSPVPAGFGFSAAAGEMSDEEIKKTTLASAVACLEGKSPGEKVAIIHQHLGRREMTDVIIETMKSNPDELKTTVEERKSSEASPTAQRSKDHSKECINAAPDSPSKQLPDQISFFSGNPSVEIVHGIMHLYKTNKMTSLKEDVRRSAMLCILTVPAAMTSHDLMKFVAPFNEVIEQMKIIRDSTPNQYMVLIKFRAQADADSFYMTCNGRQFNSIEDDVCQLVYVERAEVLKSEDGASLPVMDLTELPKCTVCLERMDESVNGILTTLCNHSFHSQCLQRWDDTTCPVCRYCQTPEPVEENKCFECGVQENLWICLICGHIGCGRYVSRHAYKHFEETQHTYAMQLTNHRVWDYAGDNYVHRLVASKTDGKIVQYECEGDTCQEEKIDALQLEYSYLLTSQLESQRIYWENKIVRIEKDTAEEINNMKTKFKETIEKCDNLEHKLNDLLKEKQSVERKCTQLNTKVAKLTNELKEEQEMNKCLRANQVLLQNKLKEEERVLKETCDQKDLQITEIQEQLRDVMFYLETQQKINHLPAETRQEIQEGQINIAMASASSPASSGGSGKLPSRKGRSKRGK
UniProt Q9H2G9: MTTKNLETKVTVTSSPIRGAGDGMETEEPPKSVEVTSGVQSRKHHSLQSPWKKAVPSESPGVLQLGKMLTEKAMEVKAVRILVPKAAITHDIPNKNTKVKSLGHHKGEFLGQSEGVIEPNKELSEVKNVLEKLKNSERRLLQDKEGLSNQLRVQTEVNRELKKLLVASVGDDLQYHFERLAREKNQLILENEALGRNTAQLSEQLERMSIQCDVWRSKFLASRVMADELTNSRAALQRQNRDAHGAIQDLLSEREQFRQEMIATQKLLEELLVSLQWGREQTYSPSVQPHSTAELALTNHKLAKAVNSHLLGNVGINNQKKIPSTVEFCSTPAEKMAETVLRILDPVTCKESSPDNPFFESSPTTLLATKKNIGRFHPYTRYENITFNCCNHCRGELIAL
UniProt O00512: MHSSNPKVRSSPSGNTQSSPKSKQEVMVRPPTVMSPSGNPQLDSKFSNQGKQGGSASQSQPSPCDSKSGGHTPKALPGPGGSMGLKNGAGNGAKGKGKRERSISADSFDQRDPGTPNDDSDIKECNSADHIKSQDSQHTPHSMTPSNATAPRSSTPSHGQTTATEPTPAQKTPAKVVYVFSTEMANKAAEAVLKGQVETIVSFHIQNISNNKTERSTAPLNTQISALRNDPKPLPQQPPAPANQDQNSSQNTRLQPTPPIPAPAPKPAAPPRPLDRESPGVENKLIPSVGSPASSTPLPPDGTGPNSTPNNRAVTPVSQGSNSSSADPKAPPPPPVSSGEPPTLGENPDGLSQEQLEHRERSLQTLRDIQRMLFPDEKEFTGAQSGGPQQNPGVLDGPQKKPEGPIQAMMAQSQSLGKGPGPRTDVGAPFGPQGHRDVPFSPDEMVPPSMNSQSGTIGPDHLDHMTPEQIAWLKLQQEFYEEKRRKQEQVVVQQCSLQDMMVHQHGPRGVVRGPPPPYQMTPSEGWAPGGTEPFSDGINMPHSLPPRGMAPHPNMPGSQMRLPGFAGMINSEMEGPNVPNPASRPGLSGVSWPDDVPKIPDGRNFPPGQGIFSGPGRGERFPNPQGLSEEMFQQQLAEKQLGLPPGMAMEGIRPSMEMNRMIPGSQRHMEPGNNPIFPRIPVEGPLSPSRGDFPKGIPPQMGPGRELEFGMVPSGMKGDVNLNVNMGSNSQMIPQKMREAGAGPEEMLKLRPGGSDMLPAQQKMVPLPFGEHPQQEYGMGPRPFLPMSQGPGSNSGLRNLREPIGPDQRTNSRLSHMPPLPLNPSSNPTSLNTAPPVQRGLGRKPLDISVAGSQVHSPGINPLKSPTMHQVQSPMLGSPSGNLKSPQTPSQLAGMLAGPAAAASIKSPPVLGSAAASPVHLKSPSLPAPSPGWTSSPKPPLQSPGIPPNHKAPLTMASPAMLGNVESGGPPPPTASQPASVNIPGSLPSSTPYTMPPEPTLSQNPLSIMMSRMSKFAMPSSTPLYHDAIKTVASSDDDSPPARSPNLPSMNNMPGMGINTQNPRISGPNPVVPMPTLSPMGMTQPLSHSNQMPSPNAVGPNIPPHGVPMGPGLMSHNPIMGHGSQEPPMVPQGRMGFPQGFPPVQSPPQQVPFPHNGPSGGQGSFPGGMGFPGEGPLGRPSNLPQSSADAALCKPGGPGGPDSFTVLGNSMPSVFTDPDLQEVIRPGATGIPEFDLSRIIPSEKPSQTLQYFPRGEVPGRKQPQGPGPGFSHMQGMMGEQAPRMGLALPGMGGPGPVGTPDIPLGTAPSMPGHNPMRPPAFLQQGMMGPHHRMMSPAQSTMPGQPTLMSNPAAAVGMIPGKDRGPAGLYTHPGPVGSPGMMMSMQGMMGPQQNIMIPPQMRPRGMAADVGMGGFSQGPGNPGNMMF
UniProt Q8NCR0: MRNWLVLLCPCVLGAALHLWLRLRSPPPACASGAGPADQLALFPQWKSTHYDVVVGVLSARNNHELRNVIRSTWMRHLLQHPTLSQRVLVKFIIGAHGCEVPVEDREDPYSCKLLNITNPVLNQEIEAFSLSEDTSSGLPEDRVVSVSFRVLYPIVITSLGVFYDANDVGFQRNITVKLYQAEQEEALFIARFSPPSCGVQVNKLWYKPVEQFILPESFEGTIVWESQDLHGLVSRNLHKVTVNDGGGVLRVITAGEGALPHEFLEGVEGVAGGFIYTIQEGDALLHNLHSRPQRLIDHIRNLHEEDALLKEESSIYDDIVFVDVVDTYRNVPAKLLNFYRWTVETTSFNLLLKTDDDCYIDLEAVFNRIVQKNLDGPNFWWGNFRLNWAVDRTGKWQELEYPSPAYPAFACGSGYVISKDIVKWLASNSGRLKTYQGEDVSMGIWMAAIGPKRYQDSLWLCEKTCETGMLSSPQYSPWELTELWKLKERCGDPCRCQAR

Key:
Test in all cases: log2 fold change, soluble protein after heating vs DMSO (PISA); higher = thermal stabilisation; K562 cells, 10 uM, 30 min; active = over 0.2 and 3.5 SD of the protein, either way, in both replicates (recomputed)
[1] = compound: C1=CC=C(C=C1)[C@H](COC2=CC3=C(C=C2)NC(=O)N3)NC(=O)C4=CC=CN(C4=O)CC5=CC(=C(C=C5)F)F
In short: (§1)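 K562 cells (2×10^6 cells/mL) were treated with 10 μM compound for 30 min, and aliquots were heated for 3 min over 48°C-58°C. Pooled aliquots were extracted in PBS with 0.5% NP-40 at 4°C, and the supernatant after 21,000xg for 90 min was measured by TMTpro 16plex LC-MS/MS with channel sums equalised. Reported thermal stability, relative to control samples and from duplicates, is a log2 fold change.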

[2] = compound: CC1=C(SC2=C1C(=N[C@H](C3=NN=C(N32)C)CC(=O)N)C4=CC=C(C=C4)Cl)C
In short: as §1

[3] = compound: CC1=C2C(=CC=C1)N=C(N(C2=O)C3=CC=CC=C3C)CN4C=NC5=C(N=CN=C54)N
In short: as §1

[4] = compound: Cc1sc2c(c1C)C(c1ccc(Cl)cc1)=N[C@@H](CC(=O)OC(C)(C)C)c1nnc(C)n1-2
In short: as §1

[5] = compound: c1ccc([C@@H]2C[C@H]2NC2CCNCC2)cc1
In short: as §1

Measured: log2 fold change

BORCS6 (UniProt Q96GS4)
inactive: [1] 0 | [2] 0.053 | [3] -0.005 | [4] -0.008 | [5] -0.014

ATR (UniProt Q13535)
inactive: [1] -0.045 | [2] 0.025 | [3] 0.107 | [4] -0.022 | [5] -0.079

B4GALT1 (UniProt P15291)
inactive: [1] 0.034 | [2] 0.057 | [3] -0.065 | [4] -0.022 | [5] -0.042

BRAP (UniProt Q7Z569)
inactive: [1] -0.058 | [2] 0.025 | [3] 0.05 | [4] 0.081 | [5] 0

BLZF1 (UniProt Q9H2G9)
inactive: [2] 0.094 | [5] 0.09

BCL9 (UniProt O00512)
inactive: [2] 0.033 | [3] 0.172 | [4] -0.086 | [5] -0.084

ATXN2 (UniProt F8W0B5)
inactive: [2] -0.125 | [5] -0.029

B3GALNT2 (UniProt Q8NCR0)
inactive: [1] 0.018 | [3] 0.093 | [4] 0.005
